PubChem BioAssay AID1259425, University of Nebraska Medical Center, 2018

- Screen: 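Seek colon cancer weak points whose silencing resembles KSR1 loss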 (primary screen)
- Cell system: HCT116 human colon cancer cells
- Knock-down reagent: siRNA pool against human genes, 50 nM siRNA
- Read-out: 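mRNA of six signature genes measured together by branched-DNA assay after 50 nM siRNA pool, blank removed, divided by geometric mean of two housekeeping genes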
- Direction: BNIP3L mRNA: higher = more BNIP3L transcript after knockdown
Shown is one part, drawn at random, of about 14,000 deposited reagents. Further read-outs or replicates are left out here. Not given: the time to read-out.

For TMCC1, what does the deposit list?
BNIP3L mRNA, set 1: 0.0578

With NKIRAS2, what does the deposit list?
BNIP3L mRNA, set 1: 0.0753

Which result is listed for KLK5?
BNIP3L mRNA, set 1: 0.132

What did the screen give for RYR2?
BNIP3L mRNA, set 1: 0.0774

What did the screen give for RNF32?
BNIP3L mRNA, set 1: 0.0804

Which result is listed for EIF5B?
BNIP3L mRNA, set 1: 0.137

What did the screen give for NPHP1?
BNIP3L mRNA, set 1: 0.141

For IL9, what does the deposit list?
BNIP3L mRNA, set 1: 0.0608

For CDK19, what was measured?
BNIP3L mRNA, set 1: 0.146

Which result is listed for SAP30?
BNIP3L mRNA, set 1: 0.0225

With WASF3, how do the results read?
BNIP3L mRNA, set 1: 0.0575

What did the screen give for NOS2?
BNIP3L mRNA, set 1: 0.116

Which result is listed for MMP14?
BNIP3L mRNA, set 1: 0.153

With SLC12A6, how do the results read?
BNIP3L mRNA, set 1: 0.0736

How did the screen score PLSCR3?
BNIP3L mRNA, set 1: 0.125

What is on record for NUDT18?
BNIP3L mRNA, set 1: 0.163

How did the screen score COL6A1?
BNIP3L mRNA, set 1: 0.138

Entries listed so far whose gene name begins with N or n (4):
NKIRAS2 → BNIP3L mRNA, set 1: 0.0753
NPHP1 → BNIP3L mRNA, set 1: 0.141
NOS2 → BNIP3L mRNA, set 1: 0.116
NUDT18 → BNIP3L mRNA, set 1: 0.163

Continued.
With GM2A, how do the results read?
BNIP3L mRNA, set 1: 0.0764

With MRPL48, what was measured?
BNIP3L mRNA, set 1: 0.0555

How did the screen score RIMS3?
BNIP3L mRNA, set 1: 0.0931

For SLITRK5, what was measured?
BNIP3L mRNA, set 1: 0.109

For SCNN1A, what was measured?
BNIP3L mRNA, set 1: 0.118

With FNDC4, what does the deposit list?
BNIP3L mRNA, set 1: 0.128

For SMNDC1, what does the deposit list?
BNIP3L mRNA, set 1: 0.116

With TSPAN1, how do the results read?
BNIP3L mRNA, set 1: 0.0619

For KLF2, what was measured?
BNIP3L mRNA, set 1: 0.0834

With PLCD1, how do the results read?
BNIP3L mRNA, set 1: 0.106

For TRIM39, how do the results read?
BNIP3L mRNA, set 1: 0.105
